For at least one compound, name, drawing or mass did not settle the structure.
How the values were obtained:
bacterial strain W574 = assay: Disk diffusion retest of colony picked from TDtest inhibition zone, W574; assay type: cell-based, E. coli; settings: same antibiotic as in TDtest step I
[1] = system: E. coli tolerant strain tbl3a; assay: Tolerance Diffusion test (TDtest), strain tbl3a; assay type: cell-based; settings: ampicillin 10 microgram or kanamycin 15 microgram disk
Method: 2 Disc Test (TDtest) Procedure
The TDtest consists of two steps:
Step I—Incubation with Antibiotics:
Circa 10^7 bacteria at stationary phase (100 microliter) were plated on LBL nutrient agar plate. An antibiotic disc was placed on the agar. The plate with the antibiotic disc was incubated for at least 4 hours and up to 30 hours, preferably about 18 hours at 37° C.
The amount of antibiotics in each disk was adjusted to reach a concentration below the MIC in the inhibition zone after an overnight incubation at 37° C. Many commercial disks contain antibiotics in amounts that are too high for the concentration to fall below the MIC after this time. When this was the case, custom disks were prepared as specified herein below.
Step II—Incubation with Nutrient:
This step was carried out in one of the following protocols:
a. The antibiotic disk was replaced with a nutrient (i.e. 2 mg glucose) disk at the end of the antibiotic incubation time. The plate was incubated again for an additional overnight (at least 5 hours and up to 24 hours, preferably about 18 hours) at 37° C.
b. […]
Tolerant bacteria are identified by the use of two different TDtest methods, the two-disks TDtest and the single disk TDtest. […] The growth of the bacterium was monitored at several time points (0, 8, 17, 30 and 36 hours from the beginning of the test).

## C[C@@H](O)[C@H]1C(=O)N2C(C(=O)O)=C(SCCN=CN)C[C@H]12 [imipenem]
Bacterial strain W574
  resistance of colony from TDtest inhibition zone on retest by disk diffusion: not resistant

## NC[C@H]1O[C@H](O[C@H]2[C@H](O)[C@@H](O[C@H]3O[C@H](CO)[C@@H](O)[C@H](N)[C@H]3O)[C@H](N)C[C@@H]2N)[C@H](O)[C@@H](O)[C@@H]1O [kanamycin]
[1]
  tolerance by TDtest: no tolerance
